# In patent US6512123B2, “Tricyclic alkylhydroxamate derivatives” (Hoffmann-La Roche Inc., priority 2001, dated 2003):
# System: histone deacetylase (HDAC)
# Assay: HDAC inhibition screening assay using an aminocoumarin derivative of an omega-acetylated lysine as substrate
# Assay type: biochemical
# Details: compound concentration 10 nM
# Method: To measure the inhibitory properties of the compounds of the invention, a screening assay was performed using an aminocoumarin derivative of an omega-acetylated lysine as substrate for the enzmye. This assay has been described in detail in the literature (Hoffmann, K., et al., Nucleic Acids Res. 27 (1999)2057-2058). Using the protocol described therein, there was measured the inhibitory effect of the compounds at a concentration of 10 nM.
compound,measurement,value
"O=C(CCCCCCC(=O)Nc1ccccc1)NO [suberanilohydroxamic acid (SAHA), suberanilohydroxamic acid, reference compound]",Inhibitory effect at 10 nM in %,42%
